One assay deals with T1, GST‐NAA10 (human) (UniProt P41227).
T1 sequence: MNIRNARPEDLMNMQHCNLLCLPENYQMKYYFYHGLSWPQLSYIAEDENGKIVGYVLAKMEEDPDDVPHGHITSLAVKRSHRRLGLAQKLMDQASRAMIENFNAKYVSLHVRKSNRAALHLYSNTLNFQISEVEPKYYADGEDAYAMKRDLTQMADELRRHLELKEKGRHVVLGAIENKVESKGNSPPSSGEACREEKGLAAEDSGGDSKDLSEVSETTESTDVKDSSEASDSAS
The assay can be described thus: pull-down; 2 μg His‐RelA/p65 incubated with 2 μg GST‐NAA10 or GST plus glutathione beads in binding buffer at 4°C overnight; Western blot with anti‐His and anti‐GST; both purified.

Protein sequences, listed by entry. Tags and fused reporters are not part of them.
UniProt Q04206: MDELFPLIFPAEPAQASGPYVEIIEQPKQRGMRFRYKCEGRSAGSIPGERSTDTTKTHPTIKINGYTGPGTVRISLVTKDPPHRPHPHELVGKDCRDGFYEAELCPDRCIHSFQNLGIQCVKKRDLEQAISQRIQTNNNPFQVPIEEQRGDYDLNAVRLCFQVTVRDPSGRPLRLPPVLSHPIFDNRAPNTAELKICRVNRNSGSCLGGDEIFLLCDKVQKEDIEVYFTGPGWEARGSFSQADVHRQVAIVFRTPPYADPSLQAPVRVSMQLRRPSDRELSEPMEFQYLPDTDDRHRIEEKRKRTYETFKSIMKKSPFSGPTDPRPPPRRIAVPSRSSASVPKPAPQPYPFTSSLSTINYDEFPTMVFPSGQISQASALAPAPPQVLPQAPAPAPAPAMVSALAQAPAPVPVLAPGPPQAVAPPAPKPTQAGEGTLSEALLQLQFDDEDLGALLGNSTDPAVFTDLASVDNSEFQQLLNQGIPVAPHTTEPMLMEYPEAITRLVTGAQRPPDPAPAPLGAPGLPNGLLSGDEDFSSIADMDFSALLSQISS

In assay [1] the target is RelA/p65 subunit of NF‐κB (human (endogenous in CAL 27 and SCC-15)) (UniProt Q04206). The assay can be described thus: co-IP; CAL 27 and SCC‐15 lysates (1 mg total protein) with anti‐RelA/p65 antibody (2 μg) 16 h at 4°C, Protein A/G Sepharose beads, normal mouse IgG as negative control; Western blot with anti‐RelA/p65 and anti‐NAA10. (In western blotting, separated proteins are transferred to a membrane and probed.)

Assay [2] has the same target. The assay can be described thus: co-IP; cytoplasmic protein (500 µg) of fractionated CAL 27 and SCC‐15 cells immunoprecipitated with an anti‐p65 antibody; Western blot with anti‐NAA10 and anti‐RelA/p65.
Another assay deals with His–p65 (human) (UniProt Q04206). The assay can be described thus: co-IP; V5–NAA10 and His–p65 cotransfected in 293T cells; reciprocal immunoprecipitation and immunoblotting with the indicated antibodies.

These are yes or no findings as the source states them, for the method shown. For some of these results: Binding seen in cells or lysates may run through a third protein. Some binding calls cover weakened binding; strength is not graded here. For some of these results: Sequences can lack the tags named with a protein.

“His‐RelA/p65 (from UniProt Q04206 1-551)”: the binding entry in the assay with GST‐NAA10 (human) is “binds”.

B1: N‐α‐Acetyltransferase 10 (protein, UniProt P41227 1-235)
chain: T1 sequence
Regarding B1, the binding result in assay [1] and in assay [2] was “binds” in each case.

B2: V5–NAA10 (protein, UniProt P41227 1-235)
chain: T1 sequence
As for B2, the binding result in the assay with His–p65 (human) is “binds”.

The values are drawn from article PMC9097830.
